Our source for the binding values is patent US20190367631A1.

Results are given in words; binding and its absence hold for the method and conditions named. Some results given as binding are weak or reduced against the parent protein; the word gives no strength. For some of these results: Sequences can lack the tags named with a protein.

The target of experiment [1] is full length monkey MSR1 on HEK293.mfMSR1 cells (monkey (Macaca fascicularis)). Put plainly: ECL cell binding (MSD), 11 nM antibody.
In experiment [2] the target is full length monkey MSR1 on HEK293.mfMSR1 cells (Macaca fascicularis). The experiment can be described thus: ECL cell binding; section head of Table 10.
The target of experiment [3] is T1, mouse MSR1 extracellular domain expressed with a N-terminal nonahistidine tag (His9-mMSR1) (mouse) (UniProt P30204).
T1 sequence (looked up): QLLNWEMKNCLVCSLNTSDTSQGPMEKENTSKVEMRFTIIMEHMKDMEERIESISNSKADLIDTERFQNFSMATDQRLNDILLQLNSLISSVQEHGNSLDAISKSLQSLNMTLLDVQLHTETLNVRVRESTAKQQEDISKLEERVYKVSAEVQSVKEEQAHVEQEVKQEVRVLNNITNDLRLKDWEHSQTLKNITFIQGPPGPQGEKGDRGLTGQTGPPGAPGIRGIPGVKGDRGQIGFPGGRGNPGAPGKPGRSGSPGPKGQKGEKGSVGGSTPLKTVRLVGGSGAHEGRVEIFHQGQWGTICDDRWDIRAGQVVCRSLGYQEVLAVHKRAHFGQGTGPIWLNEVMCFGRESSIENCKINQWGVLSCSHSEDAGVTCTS
Put plainly: BLI Octet, antibody captured, 25 C. (In general: In BLI a coated tip is dipped into the sample, and binding shifts an interference pattern.)

The target in experiment [4] is T2, human MSR1 extracellular domain expressed with a N-terminal nonahistidine tag (His9-hMSR1) (human) (UniProt P21757).
T2 sequence (looked up): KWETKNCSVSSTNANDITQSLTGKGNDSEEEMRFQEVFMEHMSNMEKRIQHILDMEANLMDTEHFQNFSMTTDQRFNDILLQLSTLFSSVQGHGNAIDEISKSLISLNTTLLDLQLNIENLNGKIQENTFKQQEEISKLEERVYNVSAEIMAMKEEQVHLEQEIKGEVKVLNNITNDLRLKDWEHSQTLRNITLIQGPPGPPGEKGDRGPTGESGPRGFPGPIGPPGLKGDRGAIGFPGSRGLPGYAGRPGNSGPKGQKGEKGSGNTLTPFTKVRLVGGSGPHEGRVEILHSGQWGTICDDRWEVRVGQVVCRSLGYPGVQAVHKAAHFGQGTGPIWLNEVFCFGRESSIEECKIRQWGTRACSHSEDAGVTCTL
The experiment can be described thus: SPR Biacore T200, antibody captured, 25 C. For orientation: SPR reads the build-up and loss of mass on a sensor chip optically.

B1: H1H27747P-N297Q (antibody, human IgG1, V domains shown)
VH: QVQLVESGGAVVQPGRSLRLSCAASGFTFSYYGMHWVRQAPGKGLEWVAVISYDGSKKYYADSVKGRFTISRDNSKNTLYLQMNSLRAEDTAVYYCAKDLTVDFYYGMDVWGQGTTVTVSS
VL: DIQMTQSPSSVSASVGDRVTITCRASQGISSWLAWYQQKPGKAPKLLIYATSSLQSGAPSRFSGSGSGTDFTLTISSLQPEDFATYFCQQANSFPYTFGQGTKLEIKR
On to B1, for which the binding entry in experiment [1] and in experiment [2] was “binds” in each case.

B2: H1H27754P-N297Q (antibody, human IgG1, V domains shown)
VH: EVQLVESGGGLVQPGGSLRLSCAASGFTFRTYAMTWVRQAPGKGLDWVSAITGDGGNTYYADSVKGRFTISRDNSKNTLYLQMNSLRAEDTAIYYCAKDQRFSFALYYFDYWGQGTLVTVSS
VL: DIQMTQSPSSVSASVGDRVTITCRASQGISSWLAWYQQKPGNAPKLLIYAAFSLQSGVPSRFSGSGSGTDFTLTISSLQPEDFATYYCQQANNFPWTFGQGTKVEIKR
With B2, the binding result in experiment [1] and in experiment [2] was “binds” in each case.

B3: H1H21234N-N297Q (antibody, human IgG1, V domains shown)
VH: QVQLQESGPGLVKPSETLSLTCTVTGGSISRNYWSWIRQPPGKGLEWIGYIYYSGSIDYNPSLKSRVTISVDTSKNQFSLKLSSMTAADTAVYYCARDRWNWKYGMDVWGQGTTVIVSS
VL: EIVLTQSPGTLSLSPGERATLSCRASQTVRNNYLAWYHQKPGQAPRLLIYGASSRATGIPDRFSGSGSGTDFTLTISRLEPEDFTVYYCHQYGNSPWTFGQGTKMEIKR
Turning to B3, the binding result in experiment [3], in experiment [1] and in experiment [2] was “binds” each time.

B4: H1H21234N-N297Q-LP3 (antibody, V domains shown)
VH: QVQLQESGPGLVKPSETLSLTCTVTGGSISRNYWSWIRQPPGKGLEWIGYIYYSGSIDYNPSLKSRVTISVDTSKNQFSLKLSSMTAADTAVYYCARDRWNWKYGMDVWGQGTTVIVSS
VL: EIVLTQSPGTLSLSPGERATLSCRASQTVRNNYLAWYHQKPGQAPRLLIYGASSRATGIPDRFSGSGSGTDFTLTISRLEPEDFTVYYCHQYGNSPWTFGQGTKMEIKR
modifications: LP3 via PEG3-N3 on Q295 and Q297 of the heavy chain constant region
On to B4, for which the binding result in experiment [4] is on record as “binds”.

B5: H2aM25695N (antibody, mouse IgG2a, V domains shown)
VH: QVQLQESGPGLVKPSETLSLTCTVTGGSISRNYWSWIRQPPGKGLEWIGYIYYSGSINYNPSLKSRVTISVDMSKNQFSLKLNSVTAADTAVYYCARDRWNWKYGMDVWGQGTTVIVSS
VL: EIVLTQSPGTLSLSPGERATLSCRASQTVRNSYLAWYHQKPGQAPRLLIYGASSRATGIPDRFSGSGSGTDFTLTISRLEPEDFAVYYCQQYGSSYWTFGQGTKMEIKR
Take B5: the binding entry in experiment [1] and in experiment [2] was “binds” in each case.

B6: H1H21234N (antibody, human IgG1, V domains shown)
VH: QVQLQESGPGLVKPSETLSLTCTVTGGSISRNYWSWIRQPPGKGLEWIGYIYYSGSIDYNPSLKSRVTISVDTSKNQFSLKLSSMTAADTAVYYCARDRWNWKYGMDVWGQGTTVIVSS
VL: EIVLTQSPGTLSLSPGERATLSCRASQTVRNNYLAWYHQKPGQAPRLLIYGASSRATGIPDRFSGSGSGTDFTLTISRLEPEDFTVYYCHQYGNSPWTFGQGTKMEIKR
For the molecule B6, the binding result in experiment [3], in experiment [1] and in experiment [2] was “binds” throughout.

B7: H1H27734P-N297Q (antibody, human IgG1, V domains shown)
VH: EVQLVESRGGLVQPGGSLRLSCAASGFTFSSYAMSWVRQAPGKGLEWVSAISGSGGSTFYADSVKGRFTISRDNSKNTVYLQMNSLRAEDTAVYYCAKALVLRFLEWLGDYWGQGTLVTVSS
VL: DIQMTQSPSTLSASVGDRVTITCRASQSISSWLAWFQQKPGKAPKLLIYKASSLESGVPSRFSGSGSGTEFTLTISSLQPDDFATYYCQQYKSYWTFGQGTKVEIKR
Consider B7, for which the binding entry in experiment [1] and in experiment [2] was “binds” in each case.

B8: H1H27739P-N297Q (antibody, human IgG1, V domains shown)
VH: EVQLVESGGGLVQPGGSLRLSCTASGFTFSSYAMSWVRQAPGKGLEWVSAISGTGSSTYFTDSVKGRFAISRDNSKNTLYLQMNSLRAEDTAVYYCAKDGEWLSTVTLFDYWGQGTLVTVSS
VL: EIVMTQSPATLSVSPGERATLSCRASQSVSSNLAWYQQKPGQAPRLLIYGASTRATGIPARFSGSGSGTDFTLTISSLQSEDFALYYCQQYFIWPPHPTFGPGTKVDIKR
In the case of B8, the binding entry in experiment [1] and in experiment [2] was “binds” in each case.

B9: H1H27729P-N297Q (antibody, human IgG1, V domains shown)
VH: QVQLVESGGGLVKPGGSLRLSCAASGFIFSDYYMSWIRQAPGKGLEWVSYISSSGTTIYGDSVKGRFTMSRDNAKNSLYLQMNSLRAEDTAVYYCARNYALFDYWGQGTLVTVSS
VL: DIQMTQSPSSLSASVGDRVTITCQASQDISKYLNWYQQKPGKAPKLLIYYTSNLETGVPSRFSGSGSGTDFTFTISSLQPEDIATYYCHQSDYLPFTFGPGTKVDIKR
For B9, the binding entry in experiment [1] and in experiment [2] was “binds” each time.
